Measured values from patent US4687758A, “Des-proline-N-methylarginine vasopressins” (SmithKline Beckman Corporation, priority 1985, dated 1987).
Part of at least one peptide drawing is inferred or uncertain, most often the ends. Starred links: 1 amine or outer side, 2 acyl side, 3 side chain; linkers in the order of their positions; H or OH if unused. Positions of bridges follow the written chain, without caps; N, C: chain ends. Non-standard residues stand in square brackets, D forms with d. Residues, ends and D or L forms follow the SMILES beside them. NMeR = CN[C@@H](CCCNC(=N)N)C(=O)O; X1 = O=C(CC1(S[*:2])CCCCC1)[*:1]

Experiments:
[1] = biological target: vasopressin receptors (V2 -receptors), medullary tissue of hog or human kidneys; test: vasopressin binding activity in renal medullary tissue (V2, in vitro); details: bracketed single digits are number of tests
[2] = biological target: vasopressin stimulated adenylate cyclase, medullary tissue of hog or human kidneys; test: vasopressin stimulated adenylate cyclase activation in renal medullary tissue (V2 antagonism, in vitro); assay type: biochemical
hydropenic rat = test: Hydropenic Rat Screen (anti-ADH activity in vivo); details: male rats, intraperitoneal; bracketed single digits are number of tests

Compound | Kb [1] | Ki [2] | ED300 (dose required to lower urine osmolality to 300 m-Osmoles/kg) (hydropenic rat)
CCOc1ccc(C[C@H]2NC(=O)CC3(CCCCC3)SSC[C@@H](C(=O)N[C@@H](CCCNC(=N)N)C(N)=O)NC(=O)[C@H](CC(N)=O)NC(=O)[C@H](C(C)C)NC(=O)[C@H](Cc3ccccc3)NC2=O)cc1 [B] ([dY](Et)FVNCR-NH2; linker N-5 via X1) | 9.1 nM | 2.5 nM | 0.058 mg/kg
CCOc1ccc(C[C@H]2NC(=O)CC3(CCCCC3)SSC[C@@H](C(=O)N(C)[C@@H](CCCNC(=N)N)C(N)=O)NC(=O)[C@H](CC(N)=O)NC(=O)[C@H](C(C)C)NC(=O)[C@H](Cc3ccccc3)NC2=O)cc1 [A] ([dY](Et)FVNC[NMeR]-NH2; linker N-5 via X1) | 3.2 nM | 1.4 nM | 0.0245 mg/kg
